Data source: PubChem BioAssay AID1053208 (Peter MacCallum Cancer Centre, 2014)

Test: 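Find knock-downs that sensitise mouse osteosarcoma cells to doxorubicin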 (primary screen)
Cell system: mouse osteosarcoma cells, early-passage culture from an engineered mouse model of fibroblastic bone tumour
Knock-down reagent: siRNA pool against mouse genes, 40 nM
Time to read-out: about 120 h (48 h before drug, then 72 h with drug)
Conditions: doxorubicin 100 nM for 72 h, roughly 30-40% inhibitory dose
Measured: 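Luminescent ATP signal taken as viability with or without 100 nM doxorubicin for 72 h; mean of two wells set against non-targeting siRNA and turned into robust z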
Direction: viability z-score with doxorubicin and doxorubicin viability vs non-targeting: higher = more viable cells under doxorubicin; viability z-score without drug: higher = more viable cells with knock-down alone; z-score of drug to no-drug ratio: higher = less drug sensitisation by knock-down
Hit rule: 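a pool counts as active when its viability z-score with doxorubicin is -2 or below and its z-score without drug lies between -2 and 2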
The deposit covers about 17,000 reagents; shown is a part drawn at random. 788 of them (4.7%) were called active. 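Calls rest on z-score classes alone; an extra cut-off of viability at most 70% of control was not applied to them.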

Target gene | PubChem SID | combined z-score class | viability z-score with doxorubicin | viability z-score without drug | z-score of drug to no-drug ratio | doxorubicin viability vs non-targeting | outcome
Tars3 | SID152333893 | no change with or without drug | -0.9 | -0.17 | -0.79 | 0.86 | inactive
Tmem260 | SID152296811 | no change with or without drug | -0.45 | -0.84 | 0.22 | 0.9 | inactive
Noazfp | SID152294950 | no change with or without drug | 1.35 | 1.01 | 0.79 | 1.06 | inactive
Eddm3b | SID152323485 | no change with or without drug | -1.91 | 0.34 | -2.14 | 0.77 | inactive
C1qtnf4 | SID152314648 | no change with or without drug | 0.45 | 1.52 | -0.45 | 0.98 | inactive
Gfm2 | SID152320882 | high cell count without drug only | 1.24 | 2.36 | -0.22 | 1.05 | inactive
Mrto4 | SID152317199 | no change with or without drug | 0.9 | 0.84 | 0.45 | 1.02 | inactive
Gpm6b | SID152334567 | no change with or without drug | 0.22 | 0.34 | 0.11 | 0.96 | inactive
Clcf1 | SID152342932 | no change with or without drug | -0.67 | -0.51 | -0.22 | 0.88 | inactive
Kcnn4 | SID152259849 | no change with or without drug | -1.91 | -1.35 | -1.01 | 0.77 | inactive
Reep5 | SID152292228 | high cell count without drug only | 0.67 | 2.19 | -0.56 | 1 | inactive
Slc10a2 | SID152276878 | no change with or without drug | -0.45 | -1.18 | 0.45 | 0.9 | inactive
Mrps33 | SID152275166 | low cell count with and without drug | -2.02 | -2.19 | -0.56 | 0.76 | inactive
Trpm6 | SID152295365 | no change with or without drug | -1.12 | -1.52 | 0 | 0.84 | inactive
Or10n1 | SID152260987 | no change with or without drug | 1.12 | 0.51 | 0.9 | 1.04 | inactive
Tbx1 | SID152267377 | no change with or without drug | -1.35 | 0.17 | -1.46 | 0.82 | inactive
Nipa1 | SID152286223 | no change with or without drug | -0.67 | 0.51 | -0.9 | 0.88 | inactive
Trim61 | SID152283456 | no change with or without drug | -1.12 | -1.18 | -0.34 | 0.84 | inactive
Cmc1 | SID152295569 | no change with or without drug | -1.12 | 0 | -1.12 | 0.84 | inactive
Myh3 | SID152276040 | no change with or without drug | -0.9 | -0.67 | -0.34 | 0.86 | inactive
Ephb4 | SID152277543 | no change with or without drug | -0.45 | -1.35 | 0.56 | 0.9 | inactive
Kcnh2 | SID152265849 | no change with or without drug | 0.56 | 0.51 | 0.34 | 0.99 | inactive
Uchl5 | SID152292271 | no change with or without drug | 1.12 | 1.85 | 0 | 1.04 | inactive
Prdm2 | SID152334712 | no change with or without drug | 1.46 | 1.18 | 0.79 | 1.07 | inactive
Coro6 | SID152336850 | no change with or without drug | -1.01 | 0.84 | -1.46 | 0.85 | inactive
Tlx1 | SID152337637 | no change with or without drug | -1.8 | -1.52 | -0.79 | 0.78 | inactive
Galm | SID152285787 | no change with or without drug | 1.01 | 1.69 | 0 | 1.03 | inactive
Fhip1a | SID152337591 | no change with or without drug | 0 | -0.17 | 0.22 | 0.94 | inactive
Actr1a | SID152322061 | no change with or without drug | -1.12 | 0.51 | -1.35 | 0.84 | inactive
Fbn2 | SID152321731 | no change with or without drug | 0.67 | 1.18 | 0 | 1 | inactive
Krt2 | SID152321246 | no change with or without drug | -0.45 | -1.18 | 0.45 | 0.9 | inactive
Ier2 | SID152340221 | low cell count with doxorubicin only | -2.14 | -1.18 | -1.46 | 0.75 | active
Zfp704 | SID152336834 | no change with or without drug | -0.22 | 0.51 | -0.45 | 0.92 | inactive

Continued, starting with the last 7 of the part before.
Target gene | PubChem SID | combined z-score class | viability z-score with doxorubicin | viability z-score without drug | z-score of drug to no-drug ratio | doxorubicin viability vs non-targeting | outcome
Galm | SID152285787 | no change with or without drug | 1.01 | 1.69 | 0 | 1.03 | inactive
Fhip1a | SID152337591 | no change with or without drug | 0 | -0.17 | 0.22 | 0.94 | inactive
Actr1a | SID152322061 | no change with or without drug | -1.12 | 0.51 | -1.35 | 0.84 | inactive
Fbn2 | SID152321731 | no change with or without drug | 0.67 | 1.18 | 0 | 1 | inactive
Krt2 | SID152321246 | no change with or without drug | -0.45 | -1.18 | 0.45 | 0.9 | inactive
Ier2 | SID152340221 | low cell count with doxorubicin only | -2.14 | -1.18 | -1.46 | 0.75 | active
Zfp704 | SID152336834 | no change with or without drug | -0.22 | 0.51 | -0.45 | 0.92 | inactive
Etfb | SID152339086 | no change with or without drug | 0.34 | 1.01 | -0.22 | 0.97 | inactive
Wdr45b | SID152337076 | no change with or without drug | -0.45 | 0.17 | -0.45 | 0.9 | inactive
Nup155 | SID152262597 | low cell count with and without drug | -4.16 | -6.91 | 0.9 | 0.57 | inactive
Senp5 | SID152312114 | no change with or without drug | 0.34 | -0.17 | 0.56 | 0.97 | inactive
Pag1 | SID152305320 | no change with or without drug | 0.45 | 0.51 | 0.22 | 0.98 | inactive
Fmc1 | SID152267052 | low cell count with and without drug | -4.38 | -4.89 | -1.69 | 0.55 | inactive
Zfp688 | SID152327559 | no change with or without drug | 0.56 | 1.18 | -0.11 | 0.99 | inactive
Klra21 | SID152327810 | no change with or without drug | 0 | -0.51 | 0.45 | 0.94 | inactive
Mmrn2 | SID152341977 | low cell count with doxorubicin only | -2.02 | -1.69 | -1.01 | 0.76 | active
Rps17 | SID152294824 | low cell count with and without drug | -5.06 | -3.54 | -3.6 | 0.49 | inactive
Fhod3 | SID152283046 | high cell count without drug only | 0.22 | 2.02 | -0.9 | 0.96 | inactive
Coro2a | SID152297576 | no change with or without drug | 0.9 | -0.34 | 1.35 | 1.02 | inactive
Mei4 | SID152296400 | low cell count with doxorubicin only | -2.47 | -0.51 | -2.25 | 0.72 | active
Stambp | SID152306643 | no change with or without drug | 1.46 | 0.84 | 1.01 | 1.07 | inactive
Ccdc74a | SID152269739 | no change with or without drug | 0.45 | 0 | 0.56 | 0.98 | inactive
Krtap9-3 | SID152302136 | no change with or without drug | -0.9 | 1.85 | -1.91 | 0.86 | inactive
Firrm | SID152330073 | no change with or without drug | 0 | 0.84 | -0.45 | 0.94 | inactive
Tnip1 | SID152277257 | no change with or without drug | -0.67 | -0.17 | -0.45 | 0.88 | inactive
Arhgef16 | SID152307570 | no change with or without drug | 0.22 | 1.85 | -0.79 | 0.96 | inactive
Or1e1c | SID152336313 | no change with or without drug | -0.22 | -1.01 | 0.56 | 0.92 | inactive
Scel | SID152320851 | no change with or without drug | 1.91 | 1.85 | 0.79 | 1.11 | inactive
Khdrbs3 | SID152318798 | low cell count with doxorubicin only | -2.14 | -1.85 | -1.01 | 0.75 | active
Sowahd | SID152338220 | low cell count without drug only | -0.34 | -6.58 | 7.19 | 0.91 | inactive
Gpatch2l | SID152315059 | no change with or without drug | 0.9 | -0.51 | 1.46 | 1.02 | inactive
Apoe | SID152333048 | high cell count with and without drug | 3.6 | 2.19 | 2.14 | 1.26 | inactive
Rcor2 | SID152271387 | no change with or without drug | 0.22 | 0.67 | -0.11 | 0.96 | inactive
Mgmt | SID152289559 | no change with or without drug | -1.57 | -1.18 | -0.79 | 0.8 | inactive
Pard6a | SID152308399 | no change with or without drug | 0.22 | 1.35 | -0.56 | 0.96 | inactive
Ctso | SID152289929 | no change with or without drug | 0 | -0.51 | 0.45 | 0.94 | inactive
Inpp5a | SID152303565 | no change with or without drug | -0.45 | 0.17 | -0.45 | 0.9 | inactive
